Test results: patent US20220010008A1
No constants are given. Whether binding was seen depends on the method and setting. A result given as binding can be weak or reduced; the word gives no strength.

B1: 154F10G8 (murine hybridoma antibody) (antibody, V domains shown)
VH: QVQLQQPGAELVKPGASVKLSCKASGYTFTSYWITWVKQRPGQGLEWIGDIYPGSGSTFYNEKFKSEATLTVDTSSSTAYMQLSSLTSEDSAVFYCSTETTLGYWGQGTTLTVSS
VL: DVLMTQTPLSLPVSLGDQASISCRSSQSIVHNNGNTYLEWYLQKPGQSPKLLIYKVSNRFSGVPDRFSGSGSGTDFTLKISRVEAEDLGVYYCFQGSHVPFTFGSGTKLEIK
B2: 147D7H2 (murine hybridoma antibody) (antibody, V domains shown)
VH: EVQLQQSGAELVKPGASVKLSCTASGFNIKDYFIHWVKQRTEQGLEWIGRIDTEDGETKYAPKFQGKATITIDTSSNTAYLYFSSLTSEDTAMYYCARYGNYVAMDYWGQGTSVTVSS
VL: QIVLTQSPALMSASPGEKVTMTCSASSSVSYMFWYQQKPSSSPKPWIYLTSKLASGVPARFSGSGSGTSYSLTISSVEAEDAATYYCQQWNSNPYTFGGGTKLEIK
B3: 151G3B11 (murine hybridoma antibody) (antibody, V domains shown)
VH: EVHLQQSGAELVKPGASVKLSCTASGFNIKDYYMHWVKQRTEQGLEWIGRIDPEDGETKYAPKFQGQATITADTSSNTANLQLSSLTSEDTAVYYCARYGNFPDYWGPGTTLTVSS
VL: QIVLTQSPALMSASPGEKVTMTCSASSSVSYMYWYQQKPRSSPKPWIYLTSKLASGVPARFSGSGSGTSYSLTISSMEAEDAATYYCQQWNSNPYTFGGGTKLEIK
B4: 154F10G8 mouse-human chimeric antibody (antibody, human IgG4, V domains shown)
VH: QVQLQQPGAELVKPGASVKLSCKASGYTFTSYWITWVKQRPGQGLEWIGDIYPGSGSTFYNEKFKSEATLTVDTSSSTAYMQLSSLTSEDSAVFYCSTETTLGYWGQGTTLTVSS
VL: DVLMTQTPLSLPVSLGDQASISCRSSQSIVHNNGNTYLEWYLQKPGQSPKLLIYKVSNRFSGVPDRFSGSGSGTDFTLKISRVEAEDLGVYYCFQGSHVPFTFGSGTKLEIK
B5: 147D7H2 mouse-human chimeric antibody (antibody, human IgG4, V domains shown)
VH: EVQLQQSGAELVKPGASVKLSCTASGFNIKDYFIHWVKQRTEQGLEWIGRIDTEDGETKYAPKFQGKATITIDTSSNTAYLYFSSLTSEDTAMYYCARYGNYVAMDYWGQGTSVTVSS
VL: QIVLTQSPALMSASPGEKVTMTCSASSSVSYMFWYQQKPSSSPKPWIYLTSKLASGVPARFSGSGSGTSYSLTISSVEAEDAATYYCQQWNSNPYTFGGGTKLEIK
B6: 151G3B11 mouse-human chimeric antibody (antibody, human IgG4, V domains shown)
VH: EVHLQQSGAELVKPGASVKLSCTASGFNIKDYYMHWVKQRTEQGLEWIGRIDPEDGETKYAPKFQGQATITADTSSNTANLQLSSLTSEDTAVYYCARYGNFPDYWGPGTTLTVSS
VL: QIVLTQSPALMSASPGEKVTMTCSASSSVSYMYWYQQKPRSSPKPWIYLTSKLASGVPARFSGSGSGTSYSLTISSMEAEDAATYYCQQWNSNPYTFGGGTKLEIK

Target: recombinant monkey IL-5 (monkey (cynomolgus macaques))
Assay: ELISA

Row | binding | Binder
1 | binds | B1
2 | binds | B2
3 | binds | B3
4 | binds | B4
5 | binds | B5
6 | binds | B6
